The record followed here is publication PMC7994790.

Results are given in words; binding and its absence hold for the method and conditions named. In cells and extracts the contact can be indirect. Some results given as binding are weak or reduced against the parent protein; the word gives no strength. Tags and fused reporters may be left off the sequences shown.

The assay deals with T1, Flag-ETAA1 / HA-ETAA1 (UniProt Q9NY74).
T1 sequence: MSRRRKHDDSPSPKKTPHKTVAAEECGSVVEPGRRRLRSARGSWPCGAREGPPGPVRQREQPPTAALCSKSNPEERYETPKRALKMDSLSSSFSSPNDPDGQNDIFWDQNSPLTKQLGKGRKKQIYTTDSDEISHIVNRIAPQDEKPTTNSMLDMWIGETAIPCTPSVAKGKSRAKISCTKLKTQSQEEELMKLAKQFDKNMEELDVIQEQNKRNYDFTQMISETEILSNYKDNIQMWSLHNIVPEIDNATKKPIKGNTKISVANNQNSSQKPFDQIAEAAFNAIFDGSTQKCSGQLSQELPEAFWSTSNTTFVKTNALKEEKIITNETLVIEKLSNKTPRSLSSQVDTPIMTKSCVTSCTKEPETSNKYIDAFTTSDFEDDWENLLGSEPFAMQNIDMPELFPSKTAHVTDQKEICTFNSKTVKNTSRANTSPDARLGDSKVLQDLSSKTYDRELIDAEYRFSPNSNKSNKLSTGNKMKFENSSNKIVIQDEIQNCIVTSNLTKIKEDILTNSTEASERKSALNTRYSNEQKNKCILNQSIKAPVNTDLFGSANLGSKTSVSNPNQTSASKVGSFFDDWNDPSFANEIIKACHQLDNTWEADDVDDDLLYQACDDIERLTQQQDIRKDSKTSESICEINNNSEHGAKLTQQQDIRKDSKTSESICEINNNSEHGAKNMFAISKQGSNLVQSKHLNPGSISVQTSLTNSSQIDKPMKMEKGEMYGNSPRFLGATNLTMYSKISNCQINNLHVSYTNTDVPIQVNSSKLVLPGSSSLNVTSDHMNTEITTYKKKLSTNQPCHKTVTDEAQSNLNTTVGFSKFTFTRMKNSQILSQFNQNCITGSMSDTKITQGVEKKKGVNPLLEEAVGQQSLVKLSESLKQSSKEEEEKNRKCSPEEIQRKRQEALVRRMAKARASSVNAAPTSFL
The experiment in a line: co-IP; HEK293T cells transfected; NP-40 lysis buffer (in some experiments 0.75% CHAPS); anti-Flag M2 affinity gel or anti-HA agarose, 1–2 h at 4 °C; immunoblot; no AP20187 system.

B1: HA-ETAA1 571–926 (domain or fragment, UniProt Q9NY74 571-926)
chain: SKVGSFFDDWNDPSFANEIIKACHQLDNTWEADDVDDDLLYQACDDIERLTQQQDIRKDSKTSESICEINNNSEHGAKLTQQQDIRKDSKTSESICEINNNSEHGAKNMFAISKQGSNLVQSKHLNPGSISVQTSLTNSSQIDKPMKMEKGEMYGNSPRFLGATNLTMYSKISNCQINNLHVSYTNTDVPIQVNSSKLVLPGSSSLNVTSDHMNTEITTYKKKLSTNQPCHKTVTDEAQSNLNTTVGFSKFTFTRMKNSQILSQFNQNCITGSMSDTKITQGVEKKKGVNPLLEEAVGQQSLVKLSESLKQSSKEEEEKNRKCSPEEIQRKRQEALVRRMAKARASSVNAAPTSFL
Take B1: the binding result was “binds”.

B2: HA-ETAA1 2–570 (domain or fragment, UniProt Q9NY74 2-570)
chain: SRRRKHDDSPSPKKTPHKTVAAEECGSVVEPGRRRLRSARGSWPCGAREGPPGPVRQREQPPTAALCSKSNPEERYETPKRALKMDSLSSSFSSPNDPDGQNDIFWDQNSPLTKQLGKGRKKQIYTTDSDEISHIVNRIAPQDEKPTTNSMLDMWIGETAIPCTPSVAKGKSRAKISCTKLKTQSQEEELMKLAKQFDKNMEELDVIQEQNKRNYDFTQMISETEILSNYKDNIQMWSLHNIVPEIDNATKKPIKGNTKISVANNQNSSQKPFDQIAEAAFNAIFDGSTQKCSGQLSQELPEAFWSTSNTTFVKTNALKEEKIITNETLVIEKLSNKTPRSLSSQVDTPIMTKSCVTSCTKEPETSNKYIDAFTTSDFEDDWENLLGSEPFAMQNIDMPELFPSKTAHVTDQKEICTFNSKTVKNTSRANTSPDARLGDSKVLQDLSSKTYDRELIDAEYRFSPNSNKSNKLSTGNKMKFENSSNKIVIQDEIQNCIVTSNLTKIKEDILTNSTEASERKSALNTRYSNEQKNKCILNQSIKAPVNTDLFGSANLGSKTSVSNPNQTSA
Regarding B2, the binding entry is “binds”.

B3: HA-ETAA1 2–305 (domain or fragment, UniProt Q9NY74 2-305)
chain: SRRRKHDDSPSPKKTPHKTVAAEECGSVVEPGRRRLRSARGSWPCGAREGPPGPVRQREQPPTAALCSKSNPEERYETPKRALKMDSLSSSFSSPNDPDGQNDIFWDQNSPLTKQLGKGRKKQIYTTDSDEISHIVNRIAPQDEKPTTNSMLDMWIGETAIPCTPSVAKGKSRAKISCTKLKTQSQEEELMKLAKQFDKNMEELDVIQEQNKRNYDFTQMISETEILSNYKDNIQMWSLHNIVPEIDNATKKPIKGNTKISVANNQNSSQKPFDQIAEAAFNAIFDGSTQKCSGQLSQELPEAF
Consider B3, for which the binding result is on record as “no binding”.

B4: Flag-ETAA1 / HA-ETAA1 (protein, UniProt Q9NY74 1-926)
chain: T1 sequence
Turning to B4, the binding entry was “binds”.
